# PubChem BioAssay (EPA / NIEHS)
# “And” between values parts separate entries of the source, which are not always exact repeats. Identical values can stand only once. Inconclusive results, whose numbers are uncertain, are shown with a selection of clear calls. Potencies beside an inconclusive call are fits to weak or partial responses and may not hold up. The source made the active and inactive calls. The calls were made as follows: active = hit-call score of the fitted dose curve at least 0.9, where 1 is the maximum; inconclusive = response in the unintended direction; inactive = score below 0.9.
# Test: ATG_M_19_XSP1: Attagene TRANS-FACTORIAL Multi-Species (XSP1) HepG2 Assay for M19 Transcription Factor (Internal Marker) (AID 2283798)
# Method: ATG_XSP1_multi-species_TRANS is a cell-based, multiplexed assay created by modifying the existing Attagene TRANS-FACTORIAL system to include a panel of nuclear receptors from some or all the following species: human (Homo sapiens), mouse (Mus musculus), frog (Xenopus laevis), zebrafish (Danio rerio), chicken (Gallus gallus), and turtle (Chrysemys picta). The ECOTOX-FACTORIAL format uses HepG2, a human liver cell line, with measurements taken at 24 hours after chemical dosing in a 24-well plate. Xsp1 included 3 nM 6-alpha-fluorotestosterone to partially stimulate the androgen receptor.ATG_M_19_XSP1 is one of 29 assay components measured or calculated from the ATG_XSP1_multi-species_TRANS assay. It is designed to make measurements of mRNA induction, a form of inducible reporter, as detected with fluorescence intensity signals by Reverse transcription polymerase chain reaction (RT-PCR) and Capillary electrophoresis technology.This assay endpoint, ATG_M_19_XSP1, was analyzed in the positive analysis fitting direction relative to DMSO as the negative control and baseline of activity. Using a type of inducible reporter, measures of mRNA for gain-of-signal activity can be used to understand the background control at the transcription factor-level as they relate to the gene. Furthermore, this assay endpoint can be referred to as a secondary readout, because this assay has produced multiple assay endpoints where this one serves a background control function. To generalize the intended target to other relatable targets, this assay endpoint is annotated to the background measurement intended target family, where the subfamily is internal marker.
# Human liver HepG2 cells are transiently transfected with multiple reporter transcription units (MRTUs) in 6-well plates using FuGene 6 reagent (Roche; 3 ml FuGene/1 mg DNA). The MRTU constructs are regulated by a cis-regulating element (promoter). […] A major difference between the CIS and TRANS system is that in CIS activities of endogenous TFs are measured, whereas the TRANS assay evaluates changes in activities of exogenous, chimeric NR-Gal4 proteins. […] At the end of 24 hour incubation, total RNA was isolated using TriZol reagent (Invitrogen). The isolated RNA is then reverse-transcribed using oligo(dT) primer and Mo-MLV reverse transcriptase (Invitrogen) with DNAse I (Ambion) treatment for 30 min. The one-tenth of the produced cDNA was amplified by PCR using Taq DNA polymerase (Invitrogen) and two reporter sequence-specific primers. The PCR products were fluorescently labeled by primer extension with 6-arboxyfluorescein (6-FAM) 5'-labeled reporter sequence-specific primer (2 min at 95 C, 20 s at 68 C and 10 min at 72 C) and these products were digested with 5U of HpaI (New England Biolabs) for 2h at 37 C. The fragments were purified using Qiaquick PCR columns (Qiagen), analyzed on an ABI 3130xL genetic analyzer (Applied Biosystems) with peak positions identified by using a set of X-rhodamine (ROX)-labeled MapMarker1000 molecular weight standards (BioVentures). The raw capillary electrophoresis data was processed using Attagraph software (Attagene).
SMILES,AC50,outcome
C[C@]12CCC(=O)C=C1CC[C@@H]1[C@@H]2CC[C@@]2(C)[C@H]1CC[C@]2(C)O,inconclusive: 0.0262 µM,–
CC(C)(O)C(=O)Nc1ccc([N+](=O)[O-])c(C(F)(F)F)c1,inconclusive: 50 µM,–
Clc1ccc(C(c2ccccc2Cl)C(Cl)(Cl)Cl)cc1 (stereo not drawn),–,inactive
CC1(C)C(C=C(Cl)Cl)C1C(=O)OC(C#N)c1ccc(F)c(Oc2ccccc2)c1 (stereo not drawn),inconclusive: 2.93 µM,–
O=C1C2(Cl)C3(Cl)C4(Cl)C(Cl)(Cl)C5(Cl)C3(Cl)C1(Cl)C5(Cl)C24Cl (stereo not drawn),inconclusive: 0.883 µM,–
CC(=O)c1cc2c(cc1C)C(C)(C)C(C)CC2(C)C (stereo not drawn),inconclusive: 100 µM,–
CCN(CC)C(=O)C(C)Oc1cccc2ccccc12 (stereo not drawn),inconclusive: 183 µM,–
CC(C)(c1ccccc1)c1ccc(O)cc1,–,inactive
CC(C)(C)c1cc(O)ccc1O,inconclusive: 33.4 µM,–
CC1(C)CCC(Cc2ccc(Cl)cc2)C1(O)Cn1cncn1 (stereo not drawn),inconclusive: 100 µM,–
C#CCOS(=O)OC1CCCCC1Oc1ccc(C(C)(C)C)cc1 (stereo not drawn),inconclusive: 166 µM,–
COP(=S)(OC)Oc1ccc(SC)c(C)c1,inconclusive: 100 µM,–
C=CC1(C)OC(=O)N(c2cc(Cl)cc(Cl)c2)C1=O (stereo not drawn),–,inactive
C[C@]12CCC(=O)C=C1CC[C@@H]1[C@@H]2CC[C@]2(C)C(=O)CC[C@@H]12,inconclusive: 10 µM and inconclusive: 2.6 nM,–
CC(C)NC(=O)N1CC(=O)N(c2cc(Cl)cc(Cl)c2)C1=O,–,inactive

SMILES,AC50,outcome
ClC(Cl)=C(c1ccc(Cl)cc1)c1ccc(Cl)cc1,–,inactive
CC(C)(C)c1ccc(CSc2cnn(C(C)(C)C)c(=O)c2Cl)cc1,inconclusive: 100 µM,–
COP(=S)(OC)Oc1ccc([N+](=O)[O-])c(C)c1,inconclusive: 100 µM,–
CCCCOC(=O)c1ccccc1C(=O)OCCCC,–,inactive
CC1(C)CCC(=Cc2ccc(Cl)cc2)C1(O)Cn1cncn1 (stereo not drawn),–,inactive
COP(=O)(OC)O/C(=C\Cl)c1cc(Cl)c(Cl)cc1Cl,inconclusive: 178 µM,–
Cc1c(COC(=O)[C@@H]2[C@H](/C=C(\Cl)C(F)(F)F)C2(C)C)cccc1-c1ccccc1,–,inactive
CCCOCC(=Nc1ccc(Cl)cc1C(F)(F)F)n1ccnc1,–,inactive
C[C@]12C=CC3=C4CCC(=O)C=C4CC[C@H]3[C@@H]1CC[C@@H]2O,–,inactive
CCCN(CCC)c1c([N+](=O)[O-])cc(S(N)(=O)=O)cc1[N+](=O)[O-],inconclusive: 33.4 µM,–
CC(C)Oc1cc(-n2nc(C(C)(C)C)oc2=O)c(Cl)cc1Cl,inconclusive: 100 µM,–
CCCN(CCOc1c(Cl)cc(Cl)cc1Cl)C(=O)n1ccnc1,–,inactive
C[C@]12CCC(=O)C[C@@H]1CC[C@@H]1[C@@H]2CC[C@]2(C)[C@@H](O)CC[C@@H]12,–,inactive
CC12CC1(C)C(=O)N(c1cc(Cl)cc(Cl)c1)C2=O (stereo not drawn),inconclusive: 180 µM,–
COc1ccc(C(c2ccc(OC)cc2)C(Cl)(Cl)Cl)cc1,–,inactive
CCCN(CCC)c1c([N+](=O)[O-])cc(C(F)(F)F)cc1[N+](=O)[O-],inconclusive: 100 µM,–
CCCCNC(=O)OCC#CI,inconclusive: 21 µM,–
Oc1ccc(C(c2ccc(O)cc2)(C(F)(F)F)C(F)(F)F)cc1,inconclusive: 33.4 µM and inconclusive: 1 µM,–
CO/C=C(/C(=O)OC)c1ccccc1Oc1cc(Oc2ccccc2C#N)ncn1,inconclusive: 0.00192 µM,–
